Results on 53 compounds are retold here after PubChem BioAssay AID1458 (National Center for Advancing Translational Sciences (NCATS), 2008).

The campaign covered roughly 210,000 compounds. About 5,900 (2.8%) were called active. About 5% were inconclusive and are not listed. Calls come from the whole dose curve; as a rule, active = well fitted activation curve with a large enough effect; inconclusive = small, poorly fitted or top-dose-only effect; inactive = no such curve, though single readings can be large or run the other way. The entries are a selection whose mix differs from that of the whole data set. Where no call is shown, the source filed none.
Potency is the fitted concentration of half-maximal effect.

This assay in a line: qHTS Assay for Enhancers of SMN2 Splice Variant Expression. For activity change, positive = activation: % of control where 0% means no effect. Note: nearly all actives have a fitted effect of over 55% in size. The following applies: HEK293 SMN2-luciferase splicing reporter, luminescence, 30-36 h; activity change, positive = activation: at 46.1 µM (top of the series) unless noted. Put shortly:
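HEK293 cells carry an SMN2 minigene-luciferase reporter in which exon 7 inclusion puts luciferase in frame. Cells were seeded at 2000 cells/well, attached for 10-12 hours, then exposed to compounds for 30-36 hours at 37C before ONE-Glo luminescence.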
A general note: qHTS replaces the single test concentration by a dilution series.
As for `COC(=O)c1sccc1NC(=O)Cc1ccc(OC)c(OC)c1`, the activity change, positive = activation was -56.5%.

As to `CCc1nn(CC(=O)N2CCN(c3cccc(C)c3)C(C)C2)c(=O)c2cc3sccc3n12` (stereo not drawn), the activity change, positive = activation was found to be 33.1%.

In the case of `COC(=O)COc1nc(C)c(Br)c(OC)n1`, the activity change, positive = activation was 50.9%.

Take `COc1cccc(NC(=O)CSc2cc(C)c3ccccc3n2)c1`: the “activity change, positive = activation” value was inactive: -13.5%.

Take `CS(=O)(=O)c1ccc2nc(NC(=O)c3cccs3)sc2c1`: the Potency was active: 2.24 µM.

As to `NC(=O)C1CCN(C2CC(=O)N(c3cccc(F)c3)C2=O)CC1` (stereo not drawn), the activity change, positive = activation is 31.6%.

For `CCOC(=O)c1ccc(N2C(=O)CC(SCC(=O)Nc3ccc(S(N)(=O)=O)cc3)C2=O)cc1` (stereo not drawn), the “activity change, positive = activation” value was inactive: 13.3%.

In the case of `CCOC(=O)c1ccc(N2C(=O)C(O)=C(C(C)=O)C2c2ccc(O)c(OC)c2)cc1` (stereo not drawn), the activity change, positive = activation was 33.3%.

Consider `O=C(CSc1nnc(Cn2nnc3ccccc32)o1)N(Cc1ccc(F)cc1)c1ccccc1`, for which the activity change, positive = activation is -76.3%.

On to `C=CCn1c(Cc2nc3ccc(Cl)cc3[nH]2)n[nH]c1=S`, for which the activity change, positive = activation was 53.4%.

For `Cc1c(NC(=S)NC(=O)c2sc3ccccc3c2Cl)cccc1C(=O)O`, the Potency was active: 3.98 µM.

Regarding `Cc1cc(C(=O)CSc2nc(N)cc(=O)[nH]2)c(C)n1-c1ccc(OC(F)F)cc1`, the “activity change, positive = activation” value is inactive: -75.7%.

`CN(C(=O)c1ccncc1)c1nnc(-c2cccnc2)s1`: the activity change, positive = activation is 37.3%.

Take `Cc1ccc2[nH]c(-c3cccc(N)c3)cc2c1`: the Potency was active: 14.1 µM.

As to `COc1ccc(-c2nc3ccccc3c(=O)n2CCN2CCOCC2)cc1`, the activity change, positive = activation turned out to be 36.1%.

Consider `Cc1ccccc1OCCNC(=O)c1ccc2ccccc2n1`, for which the Potency was active: 22.4 µM.

`Cc1ccc(NC(=O)CSc2nnc(COc3ccc(C#N)cc3)n2-c2ccccc2)cc1C`: the “activity change, positive = activation” value is inactive: -39.6%.

In the case of `O=C(NCCC1=CCCCC1)C1CCC(CNS(=O)(=O)c2ccccc2)CC1` (stereo not drawn), the “activity change, positive = activation” value was inactive: -32.5%.

For the compound `O=C1c2[nH]nc(-c3ccccc3O)c2C(c2ccccc2F)N1Cc1ccco1` (stereo not drawn), the activity change, positive = activation was found to be 33.9%.

Consider `CSc1ccccc1C(=O)NCC1CCCO1` (stereo not drawn), for which the activity change, positive = activation stood at 34.1%.

For the compound `c1ccc(CN2CCN(c3ncnc4c3[nH]c3ccccc34)CC2)cc1`, the “activity change, positive = activation” value is inactive: -36.7%.

With `CCCCN(C(=O)c1cccc2c(=O)c(C)c(-c3ccccc3)oc12)c1ccccc1`, the “activity change, positive = activation” value was inactive: -60.8%.

As to `COC(=O)c1ccccc1NC(=O)C(C)NS(=O)(=O)c1ccc(OC)cc1` (stereo not drawn), the activity change, positive = activation was 38.5%.

For the compound `CCn1cc(C(=O)N2CCN(c3ccc(OC)cc3)CC2)c(=O)c2cc(S(=O)(=O)N3CCCCC3)ccc21`, the activity change, positive = activation came out at 31.9%.

On to `Cc1cc[n+](CC(=O)N2CCCc3ccccc32)cc1`, for which the activity change, positive = activation amounted to 5.27%.

In the case of `CCCCCCN(CCCCCC)C(=O)Cc1c(-c2ccc(F)cc2)[nH]c2ccccc12`, the Potency result was “inactive”.

Regarding `O=[N+]([O-])c1ccc(/C=C/c2ccc3cccc([N+](=O)[O-])c3n2)cc1`, the “activity change, positive = activation” value was inactive: -41.1%.

For `O=c1nc2sc3ccccc3n2c(=O)n1-c1cccc(Cl)c1`, the activity change, positive = activation was 92.3%.

`Cc1cc(C(=O)NCc2ccco2)no1`: the activity change, positive = activation stood at 34.5%.

Turning to `COc1cc(NC(=O)c2ccccc2)c(OC)cc1NC(C)=O`, the activity change, positive = activation is 52.8%.

Turning to `c1ccc(-c2nc3ccccc3[nH]2)nc1`, the Potency is active: 3.16 µM.

Consider `COc1cccc(C2CC3(CC(C)(C)NC(=S)N3)Oc3cc(O)ccc32)c1` (stereo not drawn), for which the “activity change, positive = activation” value was inactive: -36%.

Regarding `CCOC(=O)N1CCN(Cc2nc(N)nc(Nc3ccc(C)cc3)n2)CC1`, the activity change, positive = activation worked out at 42.4%.

As for `COc1ccc(Nc2nc(-c3ccccc3)cs2)cc1`, the Potency was active: 10 µM.

As to `N/C(=N\OC(=O)c1ccc(Cl)cc1)c1ccccn1`, the Potency is active: 7.08 µM.

With `S=C(Nc1cccc(Br)c1)c1ccccc1`, the activity change, positive = activation is -44.3%.

As to `O=c1oc2ccccc2c2c1ncn2-c1ccccc1`, the activity change, positive = activation came to 43.2%.

Regarding `Cc1ccccc1N/C(SCc1ccc(Cl)cc1)=C(/C#N)C(N)=O`, the activity change, positive = activation is -4.62%.

As to `CCCCNc1c2c3c(cccc3n(C)c1=O)C(=O)c1ccccc1-2`, the “activity change, positive = activation” value was inactive: -50.5%.

Consider `COc1cc(CNC(C)c2ccccc2)c(Br)cc1OCC(N)=O` (stereo not drawn), for which the activity change, positive = activation was -40.2%.

As for `c1cc(-c2noc(CC3CCCCC3)n2)ccn1`, the activity change, positive = activation is 31.4%.

With `CCc1ccc(-n2nc(CO)c(C(=O)NCc3cccnc3)n2)cc1`, the “activity change, positive = activation” value was inactive: -44.9%.

As for `Cc1ccc2c(CNCc3ccco3)cc(=O)oc2c1`, the Potency is active: 12.6 µM.

As to `NC(=O)c1ccccc1NC(=O)/C=C/c1c(Cl)cccc1Cl`, the “activity change, positive = activation” value was inactive: 45.7%.

As for `COc1ccccc1N(C)S(=O)(=O)c1ccc(C(=O)Nc2ccc(N3CCOCC3)cc2)cc1`, the “activity change, positive = activation” value was inactive: -45.8%.

For `CCCC(=O)NNc1cc(=O)c2c(=O)n(C)c(=O)n(C)c2[nH]1`, the activity change, positive = activation was -31.1%.

Turning to `Cc1ccc2nc3sc(C(=O)NCc4ccco4)c(N)c3cc2c1`, the Potency was active: 4.47 µM.

`CCOC(=O)c1cnn2c(C(F)(F)F)cc(-c3cn(C)nc3C)nc12`: the activity change, positive = activation came to 34.6%.

Regarding `CC(C)CCOc1ccc(C(=O)O)cc1`, the activity change, positive = activation was 32%.

Regarding `CCCNC(=O)C(=O)Nc1ccc(N(C)C)cc1`, the Potency is active: 11.2 µM.

With `COC(=O)[C@@]1(Cc2ccc(F)cc2)[C@H]2c3cc(C(=O)N(C)C)n(Cc4ccccc4)c3C[C@H]2CN1C(=O)c1ccccc1`, the Potency entry is “inactive”.

As for `Cc1ccc(-c2nc(C3CCN(S(=O)(=O)c4ccc(C(F)(F)F)cc4)CC3)no2)cc1`, the activity change, positive = activation amounted to 78.3%.

Turning to `O=C(CCS(=O)(=O)c1ccc(Br)cc1)NCc1cccs1`, the activity change, positive = activation came out at 37.3%.
